# The list shows a part of the results.
# B1: OS9 (Arabidopsis thaliana) (protein)
# chain: MRGSHHHHHHGMASMTGGQQMGRDLYDDDDKSRLQIFPAHLVGTFSRNNREPKYKIEFLPEDSPFHPGDNLESMVMLDKHGNRFLCYLPKEEKATSGWTSSQQNISTVMMETQQLVKLKTPDELLQPLSEKCLFRQEGWWSYEFCHQKYVRQLHVEDENKIVQEFFLGTFDPEATAAFNQTVSDASTDASQRYHSHVYTNGTTCDLTGSPAEVEVRFVCAETRAMVTSITELSTCKYALTVQCPTLCKHPLFQLEKPVSHTIHCNAIPVEEDATRNKEEQAVDESPKMIADS
# Assays:
# Assay in all cases: glycan array binding signal (z-score within array); higher = stronger binding
# Details in all cases: glycan notation: IUPAC condensed, linker removed; mutation: R201A
# [1] = molecular target: Neu5Ac(a2-8)Neu5Ac
# How it was run: (§1)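 From the Consortium for Functional Glycomics database, 3228 arrays were curated, keeping only those whose protein sequence was available. Binding is given as a within-array Z-score averaged across arrays sharing a protein sequence and across linkers. Negative Z-scores can be read as non-binding.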
# [2] = molecular target: Neu5Ac(a2-8)Neu5Ac(a2-3)Gal(b1-3)GalNAc(b1-4)[Neu5Ac(a2-3)]Gal(b1-4)Glc
# How it was run: as §1
# [3] = molecular target: Neu5Ac(a2-8)Neu5Ac(a2-3)Gal(b1-3)GalNAc(b1-4)[Neu5Ac(a2-8)Neu5Ac(a2-3)]Gal(b1-4)Glc
# How it was run: as §1
# [4] = molecular target: Neu5Ac(a2-8)Neu5Ac(a2-3)Gal(b1-4)Glc
# How it was run: as §1
# [5] = molecular target: Neu5Ac(a2-8)Neu5Ac(a2-3)Gal(b1-4)GlcNAc
# How it was run: as §1
# [6] = molecular target: Neu5Ac(a2-8)Neu5Ac(a2-3)[Gal(b1-3)GalNAc(b1-4)]Gal(b1-4)Glc
# How it was run: as §1
# [7] = molecular target: Neu5Ac(a2-8)Neu5Ac(a2-3)[GalNAc(b1-4)]Gal(b1-4)Glc
# How it was run: as §1
# [8] = molecular target: Neu5Ac(a2-8)Neu5Ac(a2-8)Neu5Ac
# How it was run: as §1
# [9] = molecular target: Neu5Ac(a2-8)Neu5Ac(a2-8)Neu5Ac(a2-3)Gal(b1-4)Glc
# How it was run: as §1
# [10] = molecular target: Neu5Ac(a2-8)Neu5Ac(a2-8)Neu5Ac(a2-3)[Gal(b1-3)GalNAc(b1-4)]Gal(b1-4)Glc
# How it was run: as §1
# [11] = molecular target: Neu5Ac(a2-8)Neu5Ac(a2-8)Neu5Ac(a2-3)[GalNAc(b1-4)]Gal(b1-4)Glc
# How it was run: as §1
# [12] = molecular target: Neu5Ac(a2-8)Neu5Ac(a2-8)Neu5Ac(a2-8)Neu5Ac(a2-3)[GalNAc(b1-4)]Gal(b1-4)Glc
# How it was run: as §1
# [13] = molecular target: Neu5Ac(a2-8)Neu5Gc(a2-3)Gal(b1-4)GlcNAc
# How it was run: as §1
# [14] = molecular target: Neu5Ac(b2-6)Gal(b1-4)GlcNAc
# How it was run: as §1
# [15] = molecular target: Neu5Ac(b2-6)GalNAc
# How it was run: as §1
# [16] = molecular target: Neu5Ac9Ac(a2-3)Gal(b1-3)GlcNAc
# How it was run: as §1
# [17] = molecular target: Neu5Ac9Ac(a2-3)Gal(b1-4)GlcNAc
# How it was run: as §1
# [18] = molecular target: Neu5Ac9Ac(a2-6)Gal(b1-4)GlcNAc
# How it was run: as §1
# [19] = molecular target: Neu5Gc(a2-3)Gal(b1-3)GlcNAc
# How it was run: as §1
# [20] = molecular target: Neu5Gc(a2-3)Gal(b1-3)[Fuc(a1-4)]GlcNAc
# How it was run: as §1
# [21] = molecular target: Neu5Gc(a2-3)Gal(b1-4)Glc
# How it was run: as §1
# [22] = molecular target: Neu5Gc(a2-3)Gal(b1-4)GlcNAc
# How it was run: as §1
# [23] = molecular target: Neu5Gc(a2-3)Gal(b1-4)GlcNAc(b1-3)Gal(b1-4)GlcNAc(b1-2)Man(a1-3)[Neu5Gc(a2-3)Gal(b1-4)GlcNAc(b1-3)Gal(b1-4)GlcNAc(b1-2)Man(a1-6)]Man(b1-4)GlcNAc(b1-4)GlcNAc
# How it was run: as §1
# [24] = molecular target: Neu5Gc(a2-3)Gal(b1-4)[Fuc(a1-3)]GlcNAc
# How it was run: as §1
# [25] = molecular target: Neu5Gc(a2-6)Gal(b1-4)GlcNAc
# How it was run: as §1
# [26] = molecular target: Neu5Gc(a2-6)GalNAc
# How it was run: as §1
# [27] = molecular target: Neu5Gc(a2-8)Neu5Ac(a2-3)Gal(b1-4)GlcNAc
# How it was run: as §1
# [28] = molecular target: Neu5Gc(a2-8)Neu5Gc(a2-3)Gal(b1-4)GlcNAc
# How it was run: as §1
# [29] = molecular target: Neu5Gc(a2-8)Neu5Gc(a2-3)Gal(b1-4)GlcNAc(b1-3)Gal(b1-4)GlcNAc
# How it was run: as §1
# [30] = molecular target: Neu5Gc(a2-8)Neu5Gc(a2-6)Gal(b1-4)GlcNAc
# How it was run: as §1
# [31] = molecular target: Neu5Gc(b2-6)Gal(b1-4)GlcNAc
# How it was run: as §1
binder,measurement,setting,value
B1,glycan array binding signal (z-score),[1],-0.57
same,glycan array binding signal (z-score),[2],0.773
same,glycan array binding signal (z-score),[3],0.862
same,glycan array binding signal (z-score),[4],0.342
same,glycan array binding signal (z-score),[5],-0.573
same,glycan array binding signal (z-score),[6],-0.319
same,glycan array binding signal (z-score),[7],0.744
same,glycan array binding signal (z-score),[8],-0.396
same,glycan array binding signal (z-score),[9],-0.398
same,glycan array binding signal (z-score),[10],-0.453
same,glycan array binding signal (z-score),[11],-0.425
same,glycan array binding signal (z-score),[12],0.783
same,glycan array binding signal (z-score),[13],-0.179
same,glycan array binding signal (z-score),[14],-0.927
same,glycan array binding signal (z-score),[15],-0.749
same,glycan array binding signal (z-score),[16],-0.763
same,glycan array binding signal (z-score),[17],-0.323
same,glycan array binding signal (z-score),[18],0.646
same,glycan array binding signal (z-score),[19],-0.795
same,glycan array binding signal (z-score),[20],-0.288
same,glycan array binding signal (z-score),[21],0.157
same,glycan array binding signal (z-score),[22],-0.006
same,glycan array binding signal (z-score),[23],-0.905
same,glycan array binding signal (z-score),[24],-0.86
same,glycan array binding signal (z-score),[25],-0.137
same,glycan array binding signal (z-score),[26],1.59
same,glycan array binding signal (z-score),[27],-0.473
same,glycan array binding signal (z-score),[28],-0.418
same,glycan array binding signal (z-score),[29],-1.24
same,glycan array binding signal (z-score),[30],-0.691
same,glycan array binding signal (z-score),[31],-0.321

# Shown as tab-separated lines: entries from further up
binder	measurement	setting	value
B1	glycan array binding signal (z-score)	[10]	-0.453
same	glycan array binding signal (z-score)	[13]	-0.179
same	glycan array binding signal (z-score)	[17]	-0.323
same	glycan array binding signal (z-score)	[21]	0.157
same	glycan array binding signal (z-score)	[22]	-0.006
same	glycan array binding signal (z-score)	[24]	-0.86
same	glycan array binding signal (z-score)	[25]	-0.137
